Values from PubChem BioAssay AID1508588 (Peter MacCallum Cancer Centre, 2020).
Purpose: 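Knock-downs boosting vemurafenib effects on melanoma cell growth or lactate release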 (primary screen). System: human WM266.4 melanoma cells (BRAF V600 mutant). Reagents: siRNA pool against human genes, 40 nM. Time to read-out: 96 h from transfection to read-out. Conditions: vemurafenib 300 nM (about IC25), added 48 h after transfection, for 48 h; comparison arm got DMSO vehicle only. Measurement: 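Cell gain (DAPI nuclei at end minus before drug, mean of two replicates) and medium lactate by absorbance per cell, both as ratio to non-targeting siRNA, also grouped into fold-change classes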. Scale: cell gain with vemurafenib: higher = more cell gain than with non-targeting siRNA; lactate per cell with vemurafenib: higher = more lactate made per cell. Call rule: 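Enhancement is called by pairing each knock-down's vehicle-arm and drug-arm fold-change classes for viability or glycolysis; which class combinations qualify is not given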. Calls: active = enhances vemurafenib effect; inactive = no enhancement seen.
In all, the deposit lists about 18,000 reagents; below is an unselected part. Over the whole deposit, 790 (4.4%) are marked active. 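Calls rest on a combination of fold-change classes in drug and vehicle arms, not all shown here.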 Unmarked entries are inactive.

For SMAD9, what was measured?
cell gain with vemurafenib: 0.51; lactate per cell with vemurafenib: 0.88

Which result is listed for OR10K1?
cell gain with vemurafenib: 0.78; lactate per cell with vemurafenib: 0.77

How did the screen score CAPN2?
cell gain with vemurafenib: 0.44; lactate per cell with vemurafenib: 1.05

For FGF5, what does the deposit list?
cell gain with vemurafenib: 0.91; lactate per cell with vemurafenib: 0.8

What is on record for SDR16C5?
cell gain with vemurafenib: 0.68; lactate per cell with vemurafenib: 0.46

With FAM111B, what does the deposit list?
cell gain with vemurafenib: 1 (active); lactate per cell with vemurafenib: 0.48

With MELK, how do the results read?
cell gain with vemurafenib: 0.81; lactate per cell with vemurafenib: 0.78

With PRDM5, what does the deposit list?
cell gain with vemurafenib: 0.95; lactate per cell with vemurafenib: 0.92

How did the screen score CLPB?
cell gain with vemurafenib: 0.72; lactate per cell with vemurafenib: 1.01

With IPO11, what does the deposit list?
cell gain with vemurafenib: 0.09; lactate per cell with vemurafenib: 3.83

How did the screen score NUP210L?
cell gain with vemurafenib: 0.67; lactate per cell with vemurafenib: 0.43

What is on record for C5orf24?
cell gain with vemurafenib: 0.75; lactate per cell with vemurafenib: 0.74

For ISOC1, what was measured?
cell gain with vemurafenib: 0.39; lactate per cell with vemurafenib: 1.12

What did the screen give for MINDY4?
cell gain with vemurafenib: 0.37; lactate per cell with vemurafenib: 1.05

Which result is listed for GUCA1C?
cell gain with vemurafenib: 0.35 (active); lactate per cell with vemurafenib: 0.45

2 entries from above, set out differently.
Target gene	cell gain with vemurafenib	lactate per cell with vemurafenib
NUP210L	0.67	0.43
C5orf24	0.75	0.74

Further entries follow.
For MYBPH, what does the deposit list?
cell gain with vemurafenib: 0.72; lactate per cell with vemurafenib: 1.01

With LAPTM5, how do the results read?
cell gain with vemurafenib: 0.65; lactate per cell with vemurafenib: 1

How did the screen score SIM2?
cell gain with vemurafenib: 0.66; lactate per cell with vemurafenib: 1.37

How did the screen score JPT1?
cell gain with vemurafenib: 0.75; lactate per cell with vemurafenib: 1.1

Which result is listed for KCNK4?
cell gain with vemurafenib: 0.18; lactate per cell with vemurafenib: 0.78

How did the screen score TADA1?
cell gain with vemurafenib: 0.8; lactate per cell with vemurafenib: 0.99

Which result is listed for ANKRD49?
cell gain with vemurafenib: 0.17; lactate per cell with vemurafenib: 1.97

What is on record for IGSF8?
cell gain with vemurafenib: 0.84; lactate per cell with vemurafenib: 1.01

How did the screen score TRAIP?
cell gain with vemurafenib: 1.18; lactate per cell with vemurafenib: 1.02

What did the screen give for SUMF2?
cell gain with vemurafenib: 0.42; lactate per cell with vemurafenib: 1.67

For YPEL3, what was measured?
cell gain with vemurafenib: 0.58; lactate per cell with vemurafenib: 1.19

With ZNF701, how do the results read?
cell gain with vemurafenib: 0.62; lactate per cell with vemurafenib: 1.43
